# ± gives the standard deviation. Only a part is listed here, and it is no random draw. Many entries were measured with a wide error.
# Tested on: MILI (PIWIL2) piRISC loaded with L1MC piRNA (26 nt)
# Experiment: pre-steady-state target cleavage rate (min^-1); MIWI and MILI are mouse PIWI proteins and EfPiwi is from a freshwater sponge; tags in brackets are library labels; higher = faster piRNA-guided slicing of the target
# Conditions: guide: L1MC piRNA 5'p-UAACUAAAUACUAUGCAAGCUGUAGG; auxiliary factor: 500 nM mouse GTSF1
# Procedure, shortened: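 The pre-steady-state cleavage rate was calculated from a burst-and-steady-state fit. Data came from Cleave-'n-Seq, in which […] transcribed, DNA-blocked target RNA library was mixed with 1 nM active affinity-purified piRISC carrying one synthetic guide, with or without 500 nM GTSF1 partner protein, in HEPES–potassium acetate buffer at 33 °C for 0–8 or 0–960 min. Uncleaved targets were sequenced and normalised to depth and to weakly complementary targets, three trials were pooled, and k3 was capped at 0.0001 min^-1.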
# 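Also: 1 nM active piRISC with 0.1 nM target library at 33 °C single turnover.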
row,Sequence,pre-steady-state target cleavage rate
1,UCCUGGAUGUCGAACCAUUGUAUUUAGUUA,0.000336 ± 0.017
2,UCCUGGAUGUCGUUGCAAUAGUAUUUAGUUA,0.00262 ± 0.0049
3,UCCUGGUACAGCUAGCAUAGUAUUUUCAAA,0.0662 ± 0.02
4,UCCUCCUAGAGCUUGCAUAGAAUUUAGUUA,0.0513 ± 0.0099
5,UCCUGGAUGUCGAAGCAUAGUAUUUAGUUC [g2:g16:cont:t1C],0.0284 ± 0.0076
6,UCCUGGAUGUCGAUGCAUAGGAUUUAGUUA,0.00183 ± 0.0049
7,UCCUGGAUGUCCAACCAUAGUAUUUAGUUA,0.00412 ± 0.004
8,UCCUGGAUGUCGUUGCAUUCUAUUUAGUUA,0.0011 ± 0.0092
9,UCCUGGUAGAGCUUGCAUAGUAUUUAGAAA,0.128 ± 0.028
10,UCCUGGAUGUCCUUGGAUACUAUUUAGUUA,0.0119 ± 0.0061
11,UCCUGGAACUGCUUGCAUAGUAUUAAGUUA,0.173 ± 0.022
12,UCCUGGAUCAGCUUGCUAUGUAUUUAGUAA,0.00621 ± 0.0032
13,UCCUGGAUCAGGAAGCAUAGUAUUUAGUUA,0.0634 ± 0.0094
14,UCCUGGAUCAGCUUGCAUAGUAUAAUGAAA,0.0691 ± 0.022
15,UCCUGGAUGAGCUUGCAUUGAAUUUAGUUA,0.00697 ± 0.0027
16,UCCUGGAUGUCGAACGUAAGUAUUUAUUA,0.00019 ± 0.036
17,UCCUGCUAGAGCUUGCAUAGUAUUUACAAA,0.146 ± 0.039
18,UCCUGGUACAGCUAGCAUAGUUUUUAGUUA,0.0495 ± 0.011
19,UCCUGGAUGUCGUUGCAUAGUUUUUAGAUA,0.000821 ± 0.013
20,UCCUGGAUGUCGUUGCGAUAGUAUUUAGUUA,0.00025 ± 0.025
21,UCCUGGAUGUCGAAGCAGAGUAUUUAGUUA,0.00191 ± 0.0056
22,UCCUCCUACAGCUUGCAUAGUCUUUAGUUA,0.198 ± 0.023
23,UCCUGGAUGUCGAAGAUAGUAUUUAGUUA,0.00154 ± 0.0043
24,UCCUGGAUGUCGAAGGAUAGUUUUUAGUUA,0.000282 ± 0.016

# Exported with tabs: part of the list above
row	Sequence	pre-steady-state target cleavage rate
14	UCCUGGAUCAGCUUGCAUAGUAUAAUGAAA	0.0691 ± 0.022
24	UCCUGGAUGUCGAAGGAUAGUUUUUAGUUA	0.000282 ± 0.016
